Measured values reported in the supplement of paper PMC4604168 (melanoma cell lines).
This is one part of the list. Many values rest on one well or one pass, so single values are uncertain.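 The apoptosis fraction was the count of cleaved-PARP antibody-stained nuclei relative to all DNA-stained nuclei, imaged in 1,536-well plates. Screening doses were set so most cells survived, and baseline and induced cleaved-PARP levels vary greatly across cell lines.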

Tests used:
Assay in all cases: cleaved PARP positive nuclei fraction relative to DMSO control; melanoma cells; higher = more apoptosis
Settings in all cases: library dose: low library concentration; 72 h
[1] = test system: MZ2-MEL
[2] = test system: MeWo
[3] = test system: RPMI7951
[4] = test system: RVH-421
[5] = test system: SkMel28
[6] = test system: SkMel2
[7] = test system: SkMel30
[8] = test system: SkMel5
[9] = test system: UACC257
[10] = test system: UACC62

Compound | cleaved PARP positive nuclei fraction [1] [%] | cleaved PARP positive nuclei fraction [2] [%] | cleaved PARP positive nuclei fraction [3] [%] | cleaved PARP positive nuclei fraction [4] [%] | cleaved PARP positive nuclei fraction [5] [%] | cleaved PARP positive nuclei fraction [6] [%] | cleaved PARP positive nuclei fraction [7] [%] | cleaved PARP positive nuclei fraction [8] [%] | cleaved PARP positive nuclei fraction [9] [%] | cleaved PARP positive nuclei fraction [10] [%]
C[C@@H]1CCN(C(=O)CC#N)C[C@@H]1N(C)c1ncnc2[nH]ccc12 + O=C(O)c1ccc(-c2c[nH]c3ncc(-c4ccccc4)cc23)cc1C1CCCC1 [GSK650394] (first compound 1 µM, partner dose 0.16 µM) | 161 | 215 | 90.8 | 44 | 69.3 | 163 | 133 | 45.2 | 72 | 67.3
C#Cc1cccc(Nc2ncnc3cc(OCCOC)c(OCCOC)cc23)c1 [erlotinib] + C[C@@H]1CCN(C(=O)CC#N)C[C@@H]1N(C)c1ncnc2[nH]ccc12 [CP690550] (first compound 0.8 µM, partner dose 1 µM) | 129 | 108 | 54.4 | 94.4 | 34.6 | 78.3 | 145 | 81.9 | 121 | 143
OCCn1cc(-c2cnc3nnn(Cc4ccc5ncccc5c4)c3n2)cn1 + COc1cc2c(Oc3ccc4[nH]c(C)cc4c3F)ncnc2cc1OCCCN1CCCC1 [cediranib] (first compound 1 µM, partner dose 0.4 µM) | 44.3 | 108 | 64.6 | 91.2 | 55.6 | 122 | 57.5 | 199 | 72.2 | 94.1
Cn1cncc1[C@@](N)(c1ccc(Cl)cc1)c1ccc2c(c1)c(-c1cccc(Cl)c1)cc(=O)n2C [tipifarnib] + COc1cc2c(Oc3ccc4[nH]c(C)cc4c3F)ncnc2cc1OCCCN1CCCC1 [cediranib] (first compound 0.01 µM, partner dose 0.4 µM) | 64.1 | 200 | 60.8 | 120 | 47.1 | 96.8 | 65.5 | 71.8 | 152 | 72.5
Cn1c(Nc2ccc(C(F)(F)F)cc2)nc2cc(Oc3ccnc(-c4ncc(C(F)(F)F)[nH]4)c3)ccc21 + NCC(=O)Nc1ccc(-n2nc(C(F)(F)F)cc2-c2ccc3c(ccc4ccccc43)c2)cc1 [OSU03012] (first compound 0.08 µM, partner dose 1 µM) | 120 | 133 | 214 | 193 | 93.2 | 141 | 174 | 230 | 951 | 357
Nc1cccc2c1CN(C1CCC(=O)NC1=O)C2=O (stereo not given) [lenalidomide] + CO[C@@H]1[C@H](N(C)C(=O)c2ccccc2)C[C@H]2O[C@]1(C)n1c3ccccc3c3c4c(c5c6ccccc6n2c5c31)C(=O)NC4 [Midostaurin] (first compound 1 µM, partner dose 0.08 µM) | 163 | 56.8 | 240 | 94.1 | 120 | 107 | 183 | 38 | 90 | 33.9
C=CCNC1=C2C[C@@H](C)C[C@H](OC)[C@H](O)[C@@H](C)/C=C(\C)[C@H](OC(N)=O)[C@@H](OC)/C=C\C=C(/C)C(=O)NC(=CC1=O)C2=O [Tanespimycin] + Cn1cc(/C=C2\C(=O)Nc3cccnc32)c2ccccc21 [GW441756] (first compound 0.002 µM, partner dose 0.4 µM) | 49.1 | 140 | 82.7 | 95 | 150 | 58.9 | 274 | 98.1 | 224 | 66.8
O=C(CCCCCCC(=O)Nc1ccccc1)NO [vorinostat] + COc1cc(Nc2ncc(F)c(Nc3ccc4c(n3)NC(=O)C(C)(C)O4)n2)cc(OC)c1OC [Tamatinib] (first compound 0.08 µM, partner dose 0.4 µM) | 90.3 | 54.3 | 110 | 109 | 22.5 | 65.7 | 33.2 | 50.9 | 142 | 213
OCc1c[nH]c2ccccc12 [Indole-3-carbinol] + CC1(C)NC(=O)N(c2ccc([N+](=O)[O-])c(C(F)(F)F)c2)C1=O [nilutamide] (first compound 0.8 µM, partner dose 1 µM) | 106 | 130 | 55.4 | 131 | 116 | 136 | 65 | 100 | 144 | 141
CO[C@@H]1[C@H](N(C)C(=O)c2ccccc2)C[C@H]2O[C@]1(C)n1c3ccccc3c3c4c(c5c6ccccc6n2c5c31)C(=O)NC4 [Midostaurin] + OCCn1cc(-c2cnc3nnn(Cc4ccc5ncccc5c4)c3n2)cn1 [PF04217903] (first compound 0.08 µM, partner dose 1 µM) | 142 | 158 | 308 | 2150 | 56.3 | 122 | 59.6 | 31.4 | 25.5 | 98.8
Nc1cccc2c1CN(C1CCC(=O)NC1=O)C2=O (stereo not given) [lenalidomide] + NC(=O)Nc1cc(-c2cccc(F)c2)sc1C(=O)N[C@H]1CCCNC1 [AZD7762] (first compound 1 µM, partner dose 0.02 µM) | 72.5 | 47.5 | 98.9 | 42.5 | 27.4 | 134 | 62.2 | 30.5 | 50.8 | 329

Rewritten comma-delimited: entries from further up.
Compound,cleaved PARP positive nuclei fraction [1] [%],cleaved PARP positive nuclei fraction [2] [%],cleaved PARP positive nuclei fraction [3] [%],cleaved PARP positive nuclei fraction [4] [%],cleaved PARP positive nuclei fraction [5] [%],cleaved PARP positive nuclei fraction [6] [%],cleaved PARP positive nuclei fraction [7] [%],cleaved PARP positive nuclei fraction [8] [%],cleaved PARP positive nuclei fraction [9] [%],cleaved PARP positive nuclei fraction [10] [%]
"C[C@@H]1CCN(C(=O)CC#N)C[C@@H]1N(C)c1ncnc2[nH]ccc12 + O=C(O)c1ccc(-c2c[nH]c3ncc(-c4ccccc4)cc23)cc1C1CCCC1 [GSK650394] (first compound 1 µM, partner dose 0.16 µM)",161,215,90.8,44,69.3,163,133,45.2,72,67.3
"CO[C@@H]1[C@H](N(C)C(=O)c2ccccc2)C[C@H]2O[C@]1(C)n1c3ccccc3c3c4c(c5c6ccccc6n2c5c31)C(=O)NC4 [Midostaurin] + OCCn1cc(-c2cnc3nnn(Cc4ccc5ncccc5c4)c3n2)cn1 [PF04217903] (first compound 0.08 µM, partner dose 1 µM)",142,158,308,2150,56.3,122,59.6,31.4,25.5,98.8
"Nc1cccc2c1CN(C1CCC(=O)NC1=O)C2=O (stereo not given) [lenalidomide] + NC(=O)Nc1cc(-c2cccc(F)c2)sc1C(=O)N[C@H]1CCCNC1 [AZD7762] (first compound 1 µM, partner dose 0.02 µM)",72.5,47.5,98.9,42.5,27.4,134,62.2,30.5,50.8,329
